Test results: PubChem BioAssay AID493014 (National Center for Advancing Translational Sciences (NCATS), 2011)
The campaign covered roughly 340,000 compounds. About 170 (0.05%) were called active. Inconclusive means that the source gave no clear call. Such entries were picked first, then a sample of the others. The call rests on the fitted dose curve; in most records, active means well fitted inhibition curve with a large enough effect in the signal ratio, with a control signal flat (not every such curve was filed as active); inconclusive means small, poorly fitted or top-dose-only effect, or effect the other way, or a change in a side signal; inactive means flat fitted curve, though single readings scatter; the % refers to the signal ratio. Where the call is inconclusive, the potency comes from a doubtful curve fit.
Potency means the concentration at half of the fitted maximal effect.

Test: qHTS Assay to Find Inhibitors of Chronic Active B-Cell Receptor Signaling;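 on activity change, negative = inhibition: plate controls were basal doxycycline-induced cells for no effect and cells given 10 µM MG132 for full effect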
Conditions: ABC-DLBCL IkBa-CBG/CBR reporter, luminescence ratio (green luciferase fused to IkBa over red control in TMD8 lymphoma cells), 4 h; activity change, negative = inhibition: at 46.1 µM (top of the series)
Outline: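 Cell line TMD8 (human ABC DLBCL), stably expressing tet-inducible CBG68-IkBa fusion and CBR; IMDM/0.5% FBS; cpd up to 46 uM; dox induction, 4 h, 37C/5% CO2; dual luminescence; green/red ratio; MG132 control.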
For `CC(=O)Oc1ccc2c(c1)C(=O)c1ccccc1C2=O`, the activity change, negative = inhibition was inconclusive: 8.64%.
With `Cc1nc2c(oc3ccccc32)c(=O)o1` the Potency was inconclusive: 35.5 µM [rising, single point].
In the case of `CN(CC(=O)Nc1cccc(F)c1)C(=O)CCNC(=O)c1ccco1`, the activity change, negative = inhibition is reported as inconclusive: 0.52%.
With `COc1ccc(C(CNC(=O)c2ccc3c(c2)OCCO3)N(C)C)cc1` (configuration not stated) the Potency was inconclusive: 17.8 µM [falling, partial curve, poor fit].
For `O=C(Cn1c(=O)c2cccn2c2ccccc21)Nc1ccc(F)cc1F`, the Potency was inconclusive: 35.5 µM [falling, partial curve, poor fit].
With `Cc1ccc(-c2csc(NC(=O)c3c(C)noc3C)n2)cc1` the “activity change, negative = inhibition” value was inactive: 11.2%.
In the case of `COc1ccccc1N(CC(=O)N(C)Cc1ccccc1)S(=O)(=O)c1cccs1`, the “activity change, negative = inhibition” value is reported as inactive: 4.89%.
For `COc1cccc(CNC(=O)c2ccc(CS(=O)(=O)Cc3ccc(C)cc3)o2)c1`, the Potency was inconclusive: 5.62 µM [falling, single point].
For `Cc1cccc2nc(CSC(=N)N)c(Br)n12`, the Potency was inconclusive: 18.4 µM [falling, partial curve, poor fit].
In the case of `Cc1cc(C)c2c(=O)n(CC(=O)N3CCC(Cc4ccccc4)CC3)sc2n1`, the “activity change, negative = inhibition” value is reported as inactive: 2.43%.
With `O=C(O)/C=C/C(=O)Nc1ccc(Cl)cc1C(=O)c1ccccc1` the activity change, negative = inhibition was inconclusive: 11.4%.
With `CC1CCN(C(=S)c2ccc3c(c2)OCO3)CC1` the “activity change, negative = inhibition” value was inactive: -0.0531%.
In the case of `Cc1cccc2cc3c(nc12)SC(=NCC1CCCO1)N(Cc1ccco1)C3` (configuration not stated), the Potency is reported as inconclusive: 10 µM [cytotoxic, partial curve].
In the case of `Nc1c(S(=O)(=O)c2cccs2)c2nc3ccccc3nc2n1/N=C/c1cccc(O)c1`, the activity change, negative = inhibition is reported as inconclusive: 15.5%.
With `COc1ccc(C2=NN(c3nc(C(=O)O)cs3)C(O)(C(F)(F)F)C2)c(OC)c1` (configuration not stated) the activity change, negative = inhibition was inconclusive: 2.62%.
With `COc1ccc(-c2cc(C(F)(F)F)n3nc(N)nc3n2)cc1` the Potency was inconclusive: 7.31 µM [falling, partial curve, poor fit].
With `COc1ccc(N2CCN(C3CCCN(C(=O)c4cccc(C)n4)C3)CC2)cc1` (configuration not stated) the activity change, negative = inhibition was inconclusive: -0.43%.
With `CC1SCC(NC(=O)c2cccc(Cl)c2)CS1` (configuration not stated) the activity change, negative = inhibition was inconclusive: 4.57%.
With `O=C(CN(c1cccc(C(F)(F)F)c1)S(=O)(=O)c1ccc(Cl)c([N+](=O)[O-])c1)NCc1ccc(F)cc1` the activity change, negative = inhibition was inconclusive: -2.56%.
With `O=[N+]([O-])c1ccc(Cl)c(S(=O)(=O)n2ccnc2)c1` the activity change, negative = inhibition was inconclusive: -12.7%.
For `CCOC(=O)C1CCN(C(=O)CN2C(=O)c3ccccc3S2(=O)=O)CC1`, the activity change, negative = inhibition was inconclusive: -1.02%.
In the case of `CC1CCN(CC(=O)Nc2ccc(Cl)cc2[N+](=O)[O-])CC1`, the activity change, negative = inhibition is reported as inconclusive: 19.1%.
In the case of `Cc1cccc(NC(=S)N(CCCN2CCOCC2)C(C)c2cc3ccccc3o2)c1C` (configuration not stated), the “activity change, negative = inhibition” value is reported as inactive: -16.6%.
In the case of `N#CCN(CC#N)C(=O)C1c2ccccc2Oc2ccccc21`, the “activity change, negative = inhibition” value is reported as inactive: 0.248%.
For `O=C1CCN(C(=O)Nc2ccccc2Cl)N1`, the Potency was inconclusive: 8.91 µM [rising, partial curve, poor fit].
For `CN(C)c1ccc(/C=N/NC(=O)CCCCCNC(=O)c2ccccc2)cc1`, the Potency was inconclusive: 35.5 µM [rising, single point].
With `Cc1ccc(C(=O)O)cc1NC(=O)CSc1ncnc2sc3c(c12)CCC3` the “activity change, negative = inhibition” value was inactive: 13.4%.
With `CCCS(=O)(=O)N1CCCC(C(=O)NCCc2ccccc2)C1` (configuration not stated) the activity change, negative = inhibition was inconclusive: 6.94%.
With `O=C(Nc1ccc(Cl)cc1C(F)(F)F)C(Sc1cccc[n+]1[O-])c1ccccc1` (configuration not stated) the Potency was inconclusive: 31.6 µM [cytotoxic, single point].
With `CCn1cc(CN2CCc3c([nH]c4ccccc34)C2c2cccc(O)c2)c(C)n1` (configuration not stated) the Potency was inconclusive: 7.94 µM [falling, partial curve, poor fit].
With `C/C(=C\c1ccccc1)C(=O)NCCCn1ccnc1` the activity change, negative = inhibition was inconclusive: 3.46%.
With `Cc1cccc(N2CCN(C(=O)C3CCN(Cc4nc(-c5ccc(Cl)cc5)oc4C)CC3)CC2)c1C` the “activity change, negative = inhibition” value was inactive: -3.56%.
With `CC1(C)CC(=O)C(N=Nc2cccc([N+](=O)[O-])c2)=C(O)C1` the Potency was inconclusive: 14.1 µM [falling, single point].
With `COc1ccc(N2CCN(C(=O)CSc3nnnn3-c3ccc4c(c3)OCCO4)CC2)cc1` the “activity change, negative = inhibition” value was inactive: -0.358%.
With `CCOc1ccccc1-n1c(CN2CCN(C(=O)c3ccco3)CC2)nc2ccccc2c1=O` the activity change, negative = inhibition was inconclusive: 19.3%.
With `Cc1cc(C)n(-c2ncc(-c3ccccc3)nn2)n1` the Potency was inconclusive: 29.1 µM [falling, single point].
For `Cc1cc([N+](=O)[O-])ccc1NC(=S)NC(=O)C(c1ccccc1)c1ccccc1`, the activity change, negative = inhibition was inconclusive: 10.7%.
For `CCn1c(Sc2ccc([N+](=O)[O-])cn2)nnc1-c1ccco1`, the Potency was inconclusive: 22.4 µM [cytotoxic, partial curve].
With `Cc1ccc(-c2n[nH]c(=O)c3ccccc23)cc1S(=O)(=O)NCCN1CCOCC1` the Potency was inconclusive: 17.8 µM [falling, partial curve, poor fit].
In the case of `O=C(CCNS(=O)(=O)c1ccc(Cl)cc1)N1CCOCC1`, the “activity change, negative = inhibition” value is reported as inactive: 7.28%.
For `CCc1nc(Nc2ccc(O)cc2)c2oc3ccccc3c2n1`, the Potency was inconclusive: 35.5 µM [falling, single point].
With `Cc1coc2cc3oc(=O)c(CCC(=O)NCc4ccccn4)c(C)c3cc12` the activity change, negative = inhibition was inconclusive: 15.5%.
In the case of `Cc1cccc(C(=O)NNC(=O)c2ccccc2Br)c1`, the activity change, negative = inhibition is reported as inconclusive: -17.3%.
For `O=C(NCCN1CCOCC1)c1cc(-c2ccccc2)on1`, the “activity change, negative = inhibition” value was inactive: -0.0223%.
In the case of `O=C(O)CCC(NS(=O)(=O)c1ccc(-c2ccccc2)cc1)C(=O)O` (configuration not stated), the activity change, negative = inhibition is reported as inconclusive: -10.5%.
For `O=C1C=C(Nc2cccc(O)c2)CC(c2ccco2)C1` (configuration not stated), the Potency was inconclusive: 3.26 µM [falling, full curve].
In the case of `C=CCOC(=O)c1ccc(N2CCN(c3ccccc3)CC2)nc1`, the activity change, negative = inhibition is reported as inconclusive: 6.65%.
With `COc1cc(C(=O)NC(=S)Nc2csc(-c3ccc(F)cc3)n2)cc(OC)c1OC` the activity change, negative = inhibition was inconclusive: -1.95%.
In the case of `Cc1cccc(-c2nc(Nc3ccc(N4CCOCC4)cc3)c3ccccc3n2)c1`, the activity change, negative = inhibition is reported as inconclusive: 7.37%.
With `CC[C@]12c3[nH]c4cc(CCC(=O)N(C)C)ccc4c3CCN1C(=O)[C@@H](CC(=O)NCCC1=CCCCC1)C[C@@H]2C(=O)N1CCN(C(=O)c2ccco2)CC1` the activity change, negative = inhibition was inconclusive: -13.6%.
For `COc1ccc(NC(=O)CN(C)C(=O)c2cccc(S(=O)(=O)N3CCCc4ccccc43)c2)cc1`, the activity change, negative = inhibition was inconclusive: -1.66%.
In the case of `O=C(O)c1ccc(CNCc2cccc(Cl)c2)cc1`, the “activity change, negative = inhibition” value is reported as inactive: 6.29%.
In the case of `O=[N+]([O-])c1cc(S(=O)(=O)N2CCCCC2)ccc1NCCCN1CCOCC1`, the activity change, negative = inhibition is reported as inconclusive: 1.01%.
With `COCCn1c(C)cc(C(=O)CSc2nc(C)c(C)c(C)n2)c1C` the activity change, negative = inhibition was inconclusive: 288%.
In the case of `NC(=O)CCN1CCCCC1`, the “activity change, negative = inhibition” value is reported as inactive: -0.553%.
In the case of `Cc1cccc(C2c3[nH]c4ccccc4c3CCN2C(=O)c2cn(C)c3ccccc3c2=O)n1` (configuration not stated), the activity change, negative = inhibition is reported as inconclusive: -14.4%.
For `CC1CCC/C(=C\Nc2ccccc2C(=O)O)C1=O` (configuration not stated), the Potency was inconclusive: 35.5 µM [falling, single point].
For `O=C(CN1C(=O)CSc2ccc(C(F)(F)F)cc21)Nc1ccccc1`, the activity change, negative = inhibition was inconclusive: 20.1%.
In the case of `C[C@H](CO)N1C[C@H](C)[C@@H](CN(C)C(=O)Nc2ccc(C(F)(F)F)cc2)Oc2c(NC(=O)CCC(F)(F)F)cccc2C1=O`, the activity change, negative = inhibition is reported as inconclusive: -5.08%.
In the case of `Cc1ccccc1NC(=O)Cn1c(C)nc2ccc(NC(=O)C3CC3)cc2c1=O`, the “activity change, negative = inhibition” value is reported as inactive: -6.53%.
For `CCc1ccccc1NC(=O)COc1ccc2c(c1)OCO2`, the Potency was inconclusive: 11.2 µM [falling, partial curve, poor fit].
For `Cc1csc(SCC(=O)Nc2nccs2)n1`, the “activity change, negative = inhibition” value was inactive: 8.66%.
With `Cc1ccccc1/C=C\c1nc2ccccc2c(=O)n1Cc1ccccc1` the activity change, negative = inhibition was inconclusive: -2.77%.
In the case of `CC(=O)c1c(C(C)=O)c(C)n(C(c2ccccc2)c2ccccc2)c1C`, the activity change, negative = inhibition is reported as inconclusive: -10.2%.
In the case of `CC(=O)Oc1ccc(C(c2ccc(OC(C)=O)cc2)c2ccccn2)cc1`, the Potency is reported as inconclusive: 0.316 µM [falling, full curve, poor fit].
In the case of `Cc1ccc(C2=NNC(=O)C(c3c[nH]c4ccccc34)C2)cc1` (configuration not stated), the activity change, negative = inhibition is reported as inconclusive: -0.432%.
With `O=C(Nc1ccc2c(c1)oc1ccccc12)c1cccnc1` the Potency was inconclusive: 20 µM [falling, single point].
In the case of `CNC(=S)N/N=C/c1ccc(-c2ccc(C(=O)O)cc2)o1`, the Potency is reported as inconclusive: 5.62 µM [rising, single point].
For `O=C(c1ccc(N2CCCC2)c([N+](=O)[O-])c1)N1CCN(S(=O)(=O)c2ccc(Cl)cc2)CC1`, the “activity change, negative = inhibition” value was inactive: 5.02%.
With `O=C(NC1CCCC1)C(=O)c1c[nH]c2ccccc12` the Potency was inconclusive: 5.62 µM [rising, single point].
In the case of `COc1cccc2cc(C(=O)Nc3ccc(F)cc3)c(=Nc3ccc(C(=O)O)cc3)oc12`, the Potency is reported as inconclusive: 2.82 µM [falling, full curve].
With `COc1cc(SC)ccc1C(=O)Nc1cccc(S(=O)(=O)NC2=NCCCCC2)c1` the activity change, negative = inhibition was inconclusive: -5.81%.
With `O=C(CNC(=O)c1ccc(Cl)cc1Cl)OCc1nc2ccccc2s1` the activity change, negative = inhibition was inconclusive: 12.3%.
In the case of `c1ccc(CNc2nc(N3CCOCC3)nc(N3CCOCC3)n2)cc1`, the Potency is reported as inconclusive: 29.1 µM [falling, single point].
With `CC(Sc1nnc(Nc2ccccc2)s1)C(=O)NC1CCCc2ccccc21` (configuration not stated) the activity change, negative = inhibition was inconclusive: 13.7%.
In the case of `O=C(NNC(=O)C1C2C=CC(C2)C1C(=O)O)c1ccccc1O` (configuration not stated), the Potency is reported as inconclusive: 5.62 µM [rising, single point].
In the case of `N#Cc1nc(COc2ccccc2Cl)oc1NCc1cccnc1`, the Potency is reported as inconclusive: 6.31 µM [falling, single point].
